Percent effect of library compounds

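Assay of Toxoplasma gondii numbers, read through their beta-galactosidase reporter with a colour substrate. Tested at 50 µM. Higher reads as fewer parasites (inferred from which compounds were picked for retests). Of about 18,000 compounds tested this way, about 170 (0.94%) reached 50% or more in at least one test.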

Results are given as percent effect. The controls that fix the scale are not given in the record; negative values are as filed. Compounds were drawn at random from those tested, without regard to their results.

| # | structure | percent effect |
|---|---|---|
| 1 | `Cc1noc(CS(=O)(=O)CC(=O)N2CCCC(C)C2)n1` (stereo not shown) | -5.049 |
| 2 | `Cc1ncsc1C(=O)N(C)c1ncccc1C#N` | -5.827 |
| 3 | `NCc1cccc(NC(=O)NC2CC2)c1` | -10.41 |
| 4 | `OCCc1ccccc1CO` | 8.053 |
| 5 | `CC(C)(C)Oc1cccc(CN)n1` | 4.846 |
| 6 | `CN(CC(C)(C)O)c1cc(N(C)CC(C)(C)O)ncn1` | 10.82 |
| 7 | `CCOc1ccc(C(=O)N2CCN(C)CC2)cc1C` | -1.95 |
| 8 | `CN(Cc1ccco1)c1ncnc2c1cnn2CCO` | 2.714 |
| 9 | `Cc1cnc(CNC(=O)c2cn3ccsc3n2)cn1` | 14.17 |
| 10 | `COc1cccc(CN(C)CC2CCS(=O)(=O)C2)c1` (stereo not shown) | 10.87 |
| 11 | `CCS(=O)(=O)NCCNCc1cccc(Cl)c1F` | -10.12 |
| 12 | `c1cnn(C2CCNCC2)c1` | 15.53 |
| 13 | `O=C(CN1CC(O)(C2CC2)C1)Nc1ccccc1F` | 2.757 |
| 14 | `CCCC(C(=O)OCC)S(N)(=O)=O` (stereo not shown) | -4.644 |
| 15 | `NC1CCCCNC1=O` (stereo not shown) | 97.52 |
| 16 | `O=C(NCC1(O)CCNC1)c1ccc(F)c(O)c1` (stereo not shown) | -8.112 |
| 17 | `NS(=O)(=O)CCC(F)(F)F` | -5.159 |
| 18 | `COCc1ccccc1CS(N)(=O)=O` | 2.173 |
| 19 | `CN1CCC(NC(=O)c2c(Br)cnn2C)CC1` | 0.7516 |
| 20 | `CS(=O)(=O)NC1CCCN(c2nc3ccccc3o2)C1` (stereo not shown) | -5.185 |
| 21 | `O=C(CN1CCCC1=O)NCCc1cscn1` | -14.39 |
| 22 | `CCNC(=O)NC1CCNC1` (stereo not shown) | -5.413 |
| 23 | `CN(Cc1cccs1)C(N)=O` | -1.94 |
| 24 | `O=c1cc(N2CCCC2)cnn1CC1CCNC1` (stereo not shown) | 2.24 |
| 25 | `Cc1cccc2nc(C(=O)NC(C)C)cn12` | -1.634 |
| 26 | `CC(CO)NCCN1CCc2ccccc2C1` (stereo not shown) | -21.28 |
| 27 | `CN(C(=O)CN)c1ccc(-c2ccccc2)cc1` | 30.62 |
| 28 | `C[C@@H]1CN(C(=O)c2cccc3cc[nH]c23)CCN1` | 24.01 |
| 29 | `Cc1ccc(C(=O)N2CCN(c3nccs3)CC2)o1` | 7.068 |
| 30 | `O=C(NCCc1noc(C2CCC2)n1)C1CCCO1` (stereo not shown) | 3.167 |
| 31 | `Cc1nc(CNC(C)Cn2cncn2)cs1` (stereo not shown) | 33.07 |
| 32 | `CCCc1c(C(=O)N2CCC2)[nH]c(C)c1C(=O)OC` | 3.966 |
| 33 | `N#Cc1ccc(S(=O)(=O)NCC[C@H]2CCCN2)c(Cl)c1` | -3.101 |
| 34 | `Cc1nn(CCO)c(C)c1CNCCCNS(C)(=O)=O` | -19.29 |
| 35 | `CC1=C(c2ccco2)CN(C(=O)c2ccncc2)CC1` | -7.197 |
| 36 | `CC(NS(=O)(=O)c1cc(Br)ccc1F)C(=O)N(C)C` (stereo not shown) | -19.79 |
| 37 | `Cc1cc(NC(=O)CS(=O)(=O)c2ccccc2)no1` | 1.357 |
| 38 | `O=S1(=O)CCCN(CCSc2ccccc2)CC1` | 3.544 |
| 39 | `Cc1cc(CN2CCC(C(=O)NCC(C)O)CC2)on1` (stereo not shown) | -10.62 |
| 40 | `CC(C)(CNC(=O)COC1CCCCC1)C(N)=O` | 0 |
| 41 | `CC(=O)c1cccc(CN2CCCC(O)(CO)CC2)c1` (stereo not shown) | 18.03 |
| 42 | `CS(=O)(=O)NCCCN` | 0 |
| 43 | `CN1CCC(CNC(=O)c2ccccc2F)CC1` | -24.84 |

Some entries from above, unchanged:

| structure | percent effect |
|---|---|
| `CCOc1ccc(C(=O)N2CCN(C)CC2)cc1C` | -1.95 |
| `CN(CC(C)(C)O)c1cc(N(C)CC(C)(C)O)ncn1` | 10.82 |
| `c1cnn(C2CCNCC2)c1` | 15.53 |
| `CC(CO)NCCN1CCc2ccccc2C1` (stereo not shown) | -21.28 |
| `NC1CCCCNC1=O` (stereo not shown) | 97.52 |

Measurements from “University of Dundee, Small-Polar-MMV Screening Library” (2021), ChEMBL document CHEMBL3988442.